Reference: article PMC11334333
Like-named read-outs stand apart in the source and are kept apart here. No constants are given. Whether binding was seen depends on the method and setting. In cells and extracts the contact can be indirect. These calls come from enrichment with a bait or labelling near it, and not all partners need be listed. Sequences can lack the tags named with a protein. Blank lines part the entries; values can stand above or below the molecule they belong to.

The chains behind the UniProt entries cited, without tags or fusion partners. Residues count along the entry.
UniProt Q9Y2J2: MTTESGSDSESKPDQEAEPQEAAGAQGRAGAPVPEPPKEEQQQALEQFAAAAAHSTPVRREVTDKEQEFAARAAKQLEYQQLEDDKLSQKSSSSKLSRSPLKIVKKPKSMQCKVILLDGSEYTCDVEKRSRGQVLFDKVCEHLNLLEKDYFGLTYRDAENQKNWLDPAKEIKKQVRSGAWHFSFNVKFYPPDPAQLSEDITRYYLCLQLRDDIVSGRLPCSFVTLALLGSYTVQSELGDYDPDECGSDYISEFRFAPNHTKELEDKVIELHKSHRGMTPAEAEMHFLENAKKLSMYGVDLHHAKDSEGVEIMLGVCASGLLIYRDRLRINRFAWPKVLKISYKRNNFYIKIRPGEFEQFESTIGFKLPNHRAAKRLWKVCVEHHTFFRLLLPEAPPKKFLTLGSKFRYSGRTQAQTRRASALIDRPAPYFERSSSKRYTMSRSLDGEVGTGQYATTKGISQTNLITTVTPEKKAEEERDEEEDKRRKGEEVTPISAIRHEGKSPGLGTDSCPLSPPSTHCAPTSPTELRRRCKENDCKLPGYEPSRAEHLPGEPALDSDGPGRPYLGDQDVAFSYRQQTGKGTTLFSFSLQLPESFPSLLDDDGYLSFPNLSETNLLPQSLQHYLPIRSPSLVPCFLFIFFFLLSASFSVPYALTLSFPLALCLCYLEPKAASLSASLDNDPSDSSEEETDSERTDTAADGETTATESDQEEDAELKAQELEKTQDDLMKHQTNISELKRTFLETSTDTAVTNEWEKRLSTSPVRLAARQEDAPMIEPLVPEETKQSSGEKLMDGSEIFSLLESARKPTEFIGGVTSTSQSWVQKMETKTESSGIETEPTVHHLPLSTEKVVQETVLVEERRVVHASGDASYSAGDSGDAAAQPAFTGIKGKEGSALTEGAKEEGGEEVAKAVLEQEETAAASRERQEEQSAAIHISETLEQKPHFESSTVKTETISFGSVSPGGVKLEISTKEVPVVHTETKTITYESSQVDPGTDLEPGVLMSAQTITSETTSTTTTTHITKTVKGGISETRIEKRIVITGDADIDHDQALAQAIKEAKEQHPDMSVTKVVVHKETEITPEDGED
UniProt O43491: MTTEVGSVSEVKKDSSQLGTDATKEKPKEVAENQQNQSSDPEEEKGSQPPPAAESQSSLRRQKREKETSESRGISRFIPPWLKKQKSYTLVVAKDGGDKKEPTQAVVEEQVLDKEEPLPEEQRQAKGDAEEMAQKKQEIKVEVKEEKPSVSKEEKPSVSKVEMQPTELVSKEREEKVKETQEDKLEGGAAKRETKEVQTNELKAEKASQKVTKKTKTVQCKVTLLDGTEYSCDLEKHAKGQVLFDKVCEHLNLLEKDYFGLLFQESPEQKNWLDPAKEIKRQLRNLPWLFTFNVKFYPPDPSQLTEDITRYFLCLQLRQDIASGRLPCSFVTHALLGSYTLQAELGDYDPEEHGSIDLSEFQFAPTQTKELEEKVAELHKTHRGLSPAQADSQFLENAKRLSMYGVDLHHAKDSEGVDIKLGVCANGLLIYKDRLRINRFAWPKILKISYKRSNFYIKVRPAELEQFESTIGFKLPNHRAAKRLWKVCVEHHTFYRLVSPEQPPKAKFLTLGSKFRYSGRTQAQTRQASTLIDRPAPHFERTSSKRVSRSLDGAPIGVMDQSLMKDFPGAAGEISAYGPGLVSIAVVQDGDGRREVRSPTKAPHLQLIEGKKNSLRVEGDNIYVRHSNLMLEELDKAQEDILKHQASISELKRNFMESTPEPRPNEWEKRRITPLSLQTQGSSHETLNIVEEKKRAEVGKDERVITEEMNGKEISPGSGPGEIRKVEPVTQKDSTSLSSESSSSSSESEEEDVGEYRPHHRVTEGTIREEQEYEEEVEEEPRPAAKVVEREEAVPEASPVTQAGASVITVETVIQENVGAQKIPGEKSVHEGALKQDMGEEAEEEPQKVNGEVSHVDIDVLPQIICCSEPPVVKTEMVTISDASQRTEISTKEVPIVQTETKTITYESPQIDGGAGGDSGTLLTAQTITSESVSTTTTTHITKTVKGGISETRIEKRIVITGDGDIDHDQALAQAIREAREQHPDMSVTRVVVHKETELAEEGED
UniProt Q14126, residues 50-1118: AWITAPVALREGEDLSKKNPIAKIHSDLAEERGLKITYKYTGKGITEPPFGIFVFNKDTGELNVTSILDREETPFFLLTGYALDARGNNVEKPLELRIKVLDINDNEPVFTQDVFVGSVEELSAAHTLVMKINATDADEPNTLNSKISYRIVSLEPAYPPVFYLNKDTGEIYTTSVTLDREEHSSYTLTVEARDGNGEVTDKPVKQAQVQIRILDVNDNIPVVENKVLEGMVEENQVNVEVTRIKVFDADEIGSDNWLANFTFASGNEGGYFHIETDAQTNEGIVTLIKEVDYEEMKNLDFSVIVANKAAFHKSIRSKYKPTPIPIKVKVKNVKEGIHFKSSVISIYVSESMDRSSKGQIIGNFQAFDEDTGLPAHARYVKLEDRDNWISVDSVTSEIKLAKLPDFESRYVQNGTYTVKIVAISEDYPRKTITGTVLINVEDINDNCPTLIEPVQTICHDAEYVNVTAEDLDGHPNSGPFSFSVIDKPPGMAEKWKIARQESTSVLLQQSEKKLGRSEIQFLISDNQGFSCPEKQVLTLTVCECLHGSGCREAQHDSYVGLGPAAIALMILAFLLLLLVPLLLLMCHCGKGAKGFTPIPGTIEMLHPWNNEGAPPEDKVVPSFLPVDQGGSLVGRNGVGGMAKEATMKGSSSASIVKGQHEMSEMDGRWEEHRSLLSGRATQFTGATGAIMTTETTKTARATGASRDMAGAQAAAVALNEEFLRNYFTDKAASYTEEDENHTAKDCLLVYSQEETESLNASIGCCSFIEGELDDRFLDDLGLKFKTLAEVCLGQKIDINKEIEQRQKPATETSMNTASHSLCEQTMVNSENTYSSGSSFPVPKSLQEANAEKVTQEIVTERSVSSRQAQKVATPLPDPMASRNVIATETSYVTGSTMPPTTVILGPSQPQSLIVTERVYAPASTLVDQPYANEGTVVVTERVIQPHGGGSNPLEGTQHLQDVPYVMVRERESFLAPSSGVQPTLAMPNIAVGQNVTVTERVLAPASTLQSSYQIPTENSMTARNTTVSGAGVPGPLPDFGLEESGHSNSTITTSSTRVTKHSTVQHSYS

Experiments:
Experiment in all cases: proximity labelling; APEX2 proximity biotinylation in transfected HEK293 cells (500 μM biotin tyramide 1 h, 1 mM H2O2 1 min); streptavidin beads; LC MS/MS with label-free quantitation in triplicate; data of the three constructs with a.a. 414–630 grouped and compared with controls lacking that …
[1] = molecular target: T1, TMEM24(1–630)-APEX2-eGFP (human) (UniProt O14523)
T1 sequence: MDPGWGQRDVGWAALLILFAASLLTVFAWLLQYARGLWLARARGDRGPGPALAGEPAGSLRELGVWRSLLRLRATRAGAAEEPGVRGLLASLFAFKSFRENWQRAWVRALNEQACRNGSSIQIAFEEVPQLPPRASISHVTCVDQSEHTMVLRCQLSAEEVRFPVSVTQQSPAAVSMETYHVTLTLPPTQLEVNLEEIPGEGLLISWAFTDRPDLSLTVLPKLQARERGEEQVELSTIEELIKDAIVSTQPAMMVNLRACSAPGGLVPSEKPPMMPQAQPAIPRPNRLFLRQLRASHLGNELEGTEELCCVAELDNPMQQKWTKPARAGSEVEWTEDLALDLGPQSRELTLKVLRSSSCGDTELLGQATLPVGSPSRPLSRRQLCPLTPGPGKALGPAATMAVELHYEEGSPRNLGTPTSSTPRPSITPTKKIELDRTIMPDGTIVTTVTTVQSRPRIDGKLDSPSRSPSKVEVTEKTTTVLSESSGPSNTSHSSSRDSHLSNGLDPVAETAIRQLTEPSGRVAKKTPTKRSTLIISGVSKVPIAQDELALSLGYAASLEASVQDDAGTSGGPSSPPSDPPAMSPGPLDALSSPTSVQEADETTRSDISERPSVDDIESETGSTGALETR

[2] = molecular target: T2, TMEM24(1–666)-APEX2-eGFP (human) (UniProt O14523)
T2 sequence: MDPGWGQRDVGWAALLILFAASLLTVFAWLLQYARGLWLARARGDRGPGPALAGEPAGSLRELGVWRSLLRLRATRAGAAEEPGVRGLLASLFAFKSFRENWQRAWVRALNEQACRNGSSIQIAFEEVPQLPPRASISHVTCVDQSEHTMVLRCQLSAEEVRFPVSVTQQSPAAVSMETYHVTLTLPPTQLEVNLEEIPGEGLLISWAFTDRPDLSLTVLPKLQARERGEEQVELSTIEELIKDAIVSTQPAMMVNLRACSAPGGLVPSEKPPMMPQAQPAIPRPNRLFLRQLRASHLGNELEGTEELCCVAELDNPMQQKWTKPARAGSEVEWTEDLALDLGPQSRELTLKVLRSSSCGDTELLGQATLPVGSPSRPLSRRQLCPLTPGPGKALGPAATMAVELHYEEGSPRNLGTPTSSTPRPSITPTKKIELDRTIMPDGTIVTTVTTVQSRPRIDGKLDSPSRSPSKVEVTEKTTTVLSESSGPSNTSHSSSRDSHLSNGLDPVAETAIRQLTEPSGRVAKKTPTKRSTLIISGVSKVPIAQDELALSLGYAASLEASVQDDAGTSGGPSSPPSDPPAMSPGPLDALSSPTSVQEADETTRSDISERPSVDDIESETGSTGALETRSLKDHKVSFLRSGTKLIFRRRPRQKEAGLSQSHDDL

[3] = molecular target: T3, TMEM24-APEX2-eGFP (human) (UniProt O14523)
T3 sequence: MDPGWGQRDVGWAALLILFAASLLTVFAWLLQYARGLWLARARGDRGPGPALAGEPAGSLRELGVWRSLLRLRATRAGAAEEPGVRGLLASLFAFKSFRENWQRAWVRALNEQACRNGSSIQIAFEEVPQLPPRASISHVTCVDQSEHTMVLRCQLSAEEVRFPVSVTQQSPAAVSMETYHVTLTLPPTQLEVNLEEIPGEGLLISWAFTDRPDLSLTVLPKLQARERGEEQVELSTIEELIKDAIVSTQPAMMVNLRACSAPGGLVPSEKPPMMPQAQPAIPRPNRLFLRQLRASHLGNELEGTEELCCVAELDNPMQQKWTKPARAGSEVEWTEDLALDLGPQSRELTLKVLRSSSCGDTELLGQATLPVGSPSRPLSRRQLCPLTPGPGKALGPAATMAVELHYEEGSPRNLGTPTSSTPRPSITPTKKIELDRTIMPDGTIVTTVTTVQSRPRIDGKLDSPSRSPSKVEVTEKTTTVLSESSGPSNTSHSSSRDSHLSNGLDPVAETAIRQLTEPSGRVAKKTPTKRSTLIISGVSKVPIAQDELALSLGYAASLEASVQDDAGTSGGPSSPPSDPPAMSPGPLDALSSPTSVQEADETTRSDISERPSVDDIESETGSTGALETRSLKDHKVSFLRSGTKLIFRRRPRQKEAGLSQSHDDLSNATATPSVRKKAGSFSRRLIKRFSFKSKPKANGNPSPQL

[4] = molecular target: T1, TMEM24(1–630)-APEX2-eGFP (human); remark: listed apart in the source
[5] = molecular target: T2, TMEM24(1–666)-APEX2-eGFP (human); remark: listed apart in the source
[6] = molecular target: T3, TMEM24-APEX2-eGFP (human); remark: listed apart in the source

- binding [1]: binds
- binding [2]: binds
- binding [3]: binds
Molecule: 4.1B (endogenous) (from UniProt Q9Y2J2 1-1087)

- binding [1]: binds
- binding [2]: binds
- binding [3]: binds
Molecule: 4.1G (endogenous) (from UniProt O43491 1-1005)

- binding [1]: binds
- binding [2]: binds
- binding [3]: binds
Molecule: desmoglien-2 (DSG-2) (from UniProt Q14126 50-1118)

- binding [4]: binds
- binding [5]: binds
- binding [6]: binds
B1: MPP1 (protein, UniProt Q00013 1-466)
chain: MTLKASEGESGGSMHTALSDLYLEHLLQKRSRPEAVSHPLNTVTEDMYTNGSPAPGSPAQVKGQEVRKVRLIQFEKVTEEPMGITLKLNEKQSCTVARILHGGMIHRQGSLHVGDEILEINGTNVTNHSVDQLQKAMKETKGMISLKVIPNQQSRLPALQMFMRAQFDYDPKKDNLIPCKEAGLKFATGDIIQIINKDDSNWWQGRVEGSSKESAGLIPSPELQEWRVASMAQSAPSEAPSCSPFGKKKKYKDKYLAKHSSIFDQLDVVSYEEVVRLPAFKRKTLVLIGASGVGRSHIKNALLSQNPEKFVYPVPYTTRPPRKSEEDGKEYHFISTEEMTRNISANEFLEFGSYQGNMFGTKFETVHQIHKQNKIAILDIEPQTLKIVRTAELSPFIVFIAPTDQGTQTEALQQLQKDSEAIRSQYAHYFDLSLVNNGVDETLKKLQEAFDQACSSPQWVPVSWVY
